From publication PMC3843068
These are yes or no findings as the source states them, for the method shown. Binding seen in cells or lysates may run through a third protein. Some results given as binding are weak or reduced against the parent protein; the word gives no strength. For some assays here: Sequences can lack the tags named with a protein. Each block holds one molecule with its values, some of them ahead of it.

Amino acid sequences for entries named in this document (tags omitted). A change or cut given only in a name is not applied to a line headed by its entry.
UniProt Q8TAF3: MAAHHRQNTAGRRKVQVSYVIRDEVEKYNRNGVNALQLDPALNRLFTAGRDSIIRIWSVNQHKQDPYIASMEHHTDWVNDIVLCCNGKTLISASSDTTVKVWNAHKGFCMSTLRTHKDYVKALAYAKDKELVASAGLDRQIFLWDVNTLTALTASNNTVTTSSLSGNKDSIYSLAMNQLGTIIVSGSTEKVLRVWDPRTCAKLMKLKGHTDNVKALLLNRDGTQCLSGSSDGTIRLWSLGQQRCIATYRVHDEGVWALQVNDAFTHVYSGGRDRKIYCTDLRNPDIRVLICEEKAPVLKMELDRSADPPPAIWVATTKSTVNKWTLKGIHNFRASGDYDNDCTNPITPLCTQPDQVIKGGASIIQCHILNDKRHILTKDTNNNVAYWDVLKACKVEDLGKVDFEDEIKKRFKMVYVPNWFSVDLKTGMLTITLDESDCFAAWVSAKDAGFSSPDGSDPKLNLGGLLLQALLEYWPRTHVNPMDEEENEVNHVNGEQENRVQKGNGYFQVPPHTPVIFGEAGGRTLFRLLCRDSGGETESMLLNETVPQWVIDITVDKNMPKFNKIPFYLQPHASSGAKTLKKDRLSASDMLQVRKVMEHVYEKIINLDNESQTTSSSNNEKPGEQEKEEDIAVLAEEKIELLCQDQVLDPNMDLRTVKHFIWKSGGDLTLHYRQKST
UniProt O75317: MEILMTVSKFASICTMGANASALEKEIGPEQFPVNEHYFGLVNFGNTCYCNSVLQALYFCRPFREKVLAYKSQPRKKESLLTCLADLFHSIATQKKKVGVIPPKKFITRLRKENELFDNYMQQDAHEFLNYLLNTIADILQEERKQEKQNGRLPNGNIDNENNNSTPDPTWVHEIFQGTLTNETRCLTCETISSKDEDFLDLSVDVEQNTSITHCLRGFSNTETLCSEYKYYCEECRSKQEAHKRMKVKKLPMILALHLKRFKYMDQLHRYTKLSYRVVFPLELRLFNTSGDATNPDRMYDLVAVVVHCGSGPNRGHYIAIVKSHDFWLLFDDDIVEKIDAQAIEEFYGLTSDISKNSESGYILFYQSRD

Columns and labels:
[1] = target: SFB-tagged WDR48 full-length (UniProt Q8TAF3); assay: co-IP; 293T transfected with FLAG-tagged plasmids; IP with FLAG antibody, blot of endogenous PHLPP1 with PHLPP1 antibody; NETN buffer
[2] = target: FLAG-tagged USP12 (SFB-triple-tagged, full-length) (UniProt O75317); assay: as above
[3] = target: T1, SFB-triple-tagged PHLPP1 full-length (UniProt O60346); assay: co-IP; 293T co-transfected with SFB-tagged PHLPP1 constructs and Myc-tagged WDR48; immunoprecipitation and immunoblotting with the indicated antibodies
T1 sequence: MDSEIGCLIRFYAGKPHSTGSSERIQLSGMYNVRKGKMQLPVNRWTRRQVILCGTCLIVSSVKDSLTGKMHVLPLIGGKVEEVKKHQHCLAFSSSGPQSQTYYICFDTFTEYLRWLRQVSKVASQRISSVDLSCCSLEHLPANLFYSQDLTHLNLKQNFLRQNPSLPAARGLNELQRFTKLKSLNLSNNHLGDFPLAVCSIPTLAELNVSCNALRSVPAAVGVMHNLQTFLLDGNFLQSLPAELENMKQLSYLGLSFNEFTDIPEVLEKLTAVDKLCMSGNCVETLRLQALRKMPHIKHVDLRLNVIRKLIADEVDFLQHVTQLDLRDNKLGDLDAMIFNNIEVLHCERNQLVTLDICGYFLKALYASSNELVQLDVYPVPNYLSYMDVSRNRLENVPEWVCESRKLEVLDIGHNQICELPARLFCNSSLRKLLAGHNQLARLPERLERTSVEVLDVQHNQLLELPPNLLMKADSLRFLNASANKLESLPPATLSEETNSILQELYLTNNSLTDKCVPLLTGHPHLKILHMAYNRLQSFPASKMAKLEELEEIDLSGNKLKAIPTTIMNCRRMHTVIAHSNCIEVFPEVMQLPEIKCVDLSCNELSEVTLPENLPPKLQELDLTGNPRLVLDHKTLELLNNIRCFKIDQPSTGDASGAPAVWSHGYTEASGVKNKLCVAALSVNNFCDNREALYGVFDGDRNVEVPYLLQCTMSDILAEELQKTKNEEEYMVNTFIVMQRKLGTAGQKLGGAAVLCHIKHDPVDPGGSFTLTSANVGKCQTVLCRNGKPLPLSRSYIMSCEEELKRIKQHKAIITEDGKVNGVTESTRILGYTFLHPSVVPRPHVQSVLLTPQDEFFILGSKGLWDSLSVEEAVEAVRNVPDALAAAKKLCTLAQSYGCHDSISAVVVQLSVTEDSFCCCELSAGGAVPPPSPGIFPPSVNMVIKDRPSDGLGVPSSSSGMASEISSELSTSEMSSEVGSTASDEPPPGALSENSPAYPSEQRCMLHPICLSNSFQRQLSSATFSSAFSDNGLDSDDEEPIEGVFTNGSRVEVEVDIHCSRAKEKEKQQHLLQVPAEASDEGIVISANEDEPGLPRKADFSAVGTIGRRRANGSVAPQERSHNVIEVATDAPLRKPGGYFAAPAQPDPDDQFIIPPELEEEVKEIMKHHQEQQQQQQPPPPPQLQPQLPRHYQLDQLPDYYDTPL

[4] = target: endogenous PHLPP1 (human (endogenous in 293T)) (UniProt O60346); assay: co-IP; endogenous proteins; IP with PHLPP1 antibody or control IgG, blots with WDR48 and USP12 antibodies; NETN lysis, 1 h at 4 °C; cell line not stated
[5] = target: T2, GST-PHLPP1 fusion protein (UniProt O60346); assay: pull-down; bacterially expressed GST-PHLPP1 or control GST on glutathione-Sepharose beads, incubated with lysate of 293T cells expressing SFB-WDR48, 1 h at 4 °C; blot with anti-FLAG antibody; only the target purified
T2 sequence: T1 sequence

[6] = target: SFB-tagged WDR48 L580F mutant (UniProt Q8TAF3); assay: co-IP; 293T co-transfected with SFB-WDR48 (WT or L580F) and HA-PHLPP1 or Myc-USP12; precipitation with streptavidin beads, blot with anti-HA or anti-myc antibody
[7] = target: SFB-tagged WDR48 full-length (UniProt Q8TAF3); assay: as above
[8] = target: SFB-tagged WDR48 full-length (UniProt Q8TAF3); assay: co-IP; 293T co-transfected with HA-PHLPP1 and FLAG(SFB)-tagged proteins; IP with anti-FLAG antibody, blot with HA antibody (Fig. 1D; Fig. 2D with the indicated antibodies); NETN buffer
[9] = target: FLAG-tagged USP12 (SFB-triple-tagged, full-length) (UniProt O75317); assay: as above

binding [1]: binds
binding [2]: binds
Molecule: endogenous PHLPP1 (from UniProt O60346 1-1717)

binding [4]: binds
Molecule: endogenous USP12 (from UniProt O75317 1-370) (enzyme)

binding [5]: binds
Molecule: SFB-tagged WDR48 full-length (from UniProt Q8TAF3 1-677)

More lines, now with the values behind:

Molecule: Myc-tagged WDR48 full-length (from UniProt Q8TAF3 1-677)
binding [3]: binds

Molecule: endogenous WDR48 (from UniProt Q8TAF3 1-677)
binding [4]: binds

Molecule: Myc-tagged USP12 full-length (from UniProt O75317 1-370) (enzyme)
binding [6]: binds
binding [7]: binds

B1: HA-tagged PHLPP1 (protein, UniProt O60346-2 1-1205)
chain: T1 sequence
binding [7]: binds
binding [8]: binds
binding [9]: binds
